Here are results for 107 sequences from PubChem BioAssay AID1508600 (Functional Genomics Laboratory (NCATS/FGL), 2020).

Out of some 53,000 sequences screened, about 3,700 (7%) were called active.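 Rule for the calls: active = gene knockdowns whose robust z-score for IL-1 alpha signal is at least 2 or at most -2, so actives lie on both sides; inactive = the rest.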 This is one part of the list.

This assay can be described thus: Components of the Cytosolic LPS Sensing Pathway: Gene Identification via Genome-wide siRNA Screen.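 Note: robust z of the log signal after scaling to non-targeting control siRNA wells of the plate.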 The note with it: RAW264.7 macrophages, IL-1a HTRF, actives lie on both sides, screened at 100 nM (by protocol), cells primed 5 h with Pam3CSK4 first. The gist of the method: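 Using IL-1a HTRF as read-out, the screen measured release from RAW264.7 cells after 48h siRNA knockdown (100 nM), 5 h Pam3CSK4 priming and 24 h cytosolic LipidA. Values were expressed relative to negative-control wells as robust z-scores.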
Turning to GGAAUACUGGUCUUGCUGUTT against Tspan17, the z-score was inactive: -1.73.

As for GGACUUGUGCAUUAAGUACTT against Fbxw11, the z-score was inactive: -0.768.

For GGUUUCCAUGUUCUUCCGATT against Pxk, the z-score was inactive: 0.37. In the case of GCAGUUAAAGCAAGCCUCUTT against Tas2r107, the z-score was inactive: 0.401.

Regarding GGUGGACAUGAGAAAGUGUTT against Prorsd1, the z-score was inactive: -0.0626. The figure for GGCUUGUAUGACAAUAAACTT against Vipr1 is inactive: -0.555; for CCCUGGUCCAUCUCUAGUGTT against Fblim1 it is inactive: 0.14; for GGAAUUUGAAGCUCUUAUGTT against Add1 it is inactive: 1.44. The figure for GGAAUACAUCAUCCAGGUGTT against Cntfr is inactive: 0.156; for GGAGAAACUGGACAACCUGTT against Eno2 it is active: 4.12; for GGCUACUAUACUGUUGAAGTT against Ceacam18 it is inactive: 0.823. The figure for GCAGAUUGGUUAAGUAUUCTT against Rttn is inactive: 0.583; for GGAGCAUCACAGAUAUCUATT against Ccr8 it is inactive: -0.113.

For the sequence GGUCAUAGCAUCUACGGCUTT against Gm4793, the z-score was inactive: -0.11. The figure for GGCUUCCCGGAGUAACAAUTT against Dlgap1 is inactive: -0.742. The figure for GGCAAGAAAGAAGUGGAACTT against Msl3l2 is inactive: 0.747; for GGCCUAUGGCUUCAUUAGCTT against Golt1a it is inactive: 0.197. The figure for CCCUCUUUAUCGUCUGUGATT against Gpha2 is active: -2.89; for GGCAGUUUCUGUGCUAUACTT against Olfr984 it is active: -2.49; for GGUCUGGUAUGAGGAGAACTT against Prodh2 it is inactive: -0.205.

In the case of GCAUGGUAUCAGGUACAUATT against Med9, the z-score is active: 2.2. Take GGAUUUUGGCCAAAUUGGUTT against Slc25a30: the z-score was active: -2.08. The figure for GCGGCCGACUUUGUGAAAGTT against Pno1 is inactive: 0.124; for GCUUUCUGAAUCCCAAGAGTT against Sh3bgr it is inactive: -0.251; for GGAAAUGAUACCUUACCACTT against Zfp715 it is inactive: 0.162.

Take GGAGGUGGAACAAAUAUUUTT against Emc6: the z-score was inactive: 0.361. The figure for GCAACACAUUUGAACCACUTT against Usp15 is inactive: -1.79. The figure for GGAUUCGUCUAGGCUCGUATT against Rap2a is inactive: -0.427. The figure for GGAGCAAAUGAUUUCAUGUTT against Tcp1 is inactive: -1.51. Turning to GGUAACCAAAACAAUUCUGTT against Cog8, the z-score is inactive: -0.00241. The figure for CCGAGUGUAAUUUCCUAAATT against Pcdhgb5 is inactive: 0.619; for CCACAUCAAGCAGAAAGUCTT against Gm5800 it is inactive: -0.306; for GGAUCUUCGGAAGACAUGUTT against Ppp1r3a it is inactive: -0.633. For the sequence GGAAGCAUCGAUCAAUCUATT against Homer2, the z-score was inactive: 0.234. The figure for GGUCUAGAGCAAUUCCAUATT against Olfr656 is inactive: 1.51; for GGCCUGGAAGUAGCAUUGUTT against Mrpl17 it is inactive: 0.545; for GGGACUUGUUGGAUGAAACTT against Gml2 it is inactive: -0.0216. The figure for GGUUUUUGGUGUGUUUCUCTT against Ppp1r12c is inactive: 0.207; for GGACUUUGUGAGGCUCUUCTT against Lsm2 it is inactive: -1.25; for GCAGUACAAGCCAUCUGUUTT against Olfm4 it is inactive: -0.0809. The figure for GCAUGAUAUCAGUGGCAAGTT against Itga11 is active: -2.41; for GGAGAAGCUGAAAGGUUAUTT against Ifrd2 it is inactive: -0.647; for CCUAUCGACACUGCCGAAATT against B3gnt4 it is inactive: -0.0411.

Consider GGUAGAUGAAGUCCUUUAUTT against Mthfs, for which the z-score was inactive: 0.996. The figure for GGAUCAUUCUGUGAACAAGTT against Ly6h is inactive: 1.52; for GGAUGAUUGCCAAAGCAGATT against Eps8 it is inactive: -0.956; for GGAUGCAGAAGAUUUUGUGTT against Ptprcap it is inactive: -0.704. The figure for GCACUAAGUUUUGGAUUAATT against Mapkap1 is inactive: 0.369; for GGAUCAAAGACGAAUUCCATT against Tle3 it is inactive: -1.97. The figure for GGAAGUUUUGGCUUAGGCATT against Tmco5b is inactive: 1.58. Take GCACUUUGAAUAUUGAUCGTT against Hipk3: the z-score is inactive: -0.95. The figure for GGUCAGAGCAUUGUGAACATT against Abcb10 is inactive: 0.443. Consider GGUCUGAGCAUUCUCAGCATT against Mrgprb2, for which the z-score was inactive: -1.34. The figure for CCACUGAAGGAAGUUCGCUTT against Amer2 is inactive: 0.21; for GGAGUUUUUAAAUGUUCUCTT against Syt1 it is inactive: 1.07; for GGAACUGCCAUUGUAUGGGTT against Myo1g it is inactive: -0.568. The figure for GGGACUUCAGGGAUUGAUUTT against Atp6v1b1 is inactive: 0.969; for GCUAGAUCCAUCCAUAUAGTT against Misp it is inactive: -1.26. The figure for GGAUGACACACACUAUUAUTT against Plek2 is inactive: 1.47; for GGCCUUGAAUUUCUCCUAUTT against Dgcr8 it is inactive: -1.09. Turning to CGCGGCAUAAACAUGUAAATT against Gatc, the z-score was inactive: -1.07.

As to GGGUGAUGAGAUCUGUCUGTT against Upf1, the z-score is inactive: -0.378. For GGAGAGUAGAUUCUCCAUUTT against Zfp692, the z-score was inactive: 0.332. GGUAACAUCUCCAUCAGCCTT against Nxph3: the z-score was inactive: 0.34.

For CCAGUCUUGCCCUUUAGUGTT against Foxi2, the z-score is inactive: -1.88.

Consider GGACCUGAAUCCUCCCAAATT against Sh3pxd2b, for which the z-score is inactive: -0.473. The figure for GGCUGCAUUACCCAGCUUATT against Olfr853 is inactive: 0.719. The figure for GCCCAAGACGACAUGAACUTT against Marchf6 is inactive: 0.602; for GGCUCAGAGUUAUUUUUGCTT against Natd1 it is inactive: -1.64; for GCAUCCUACUUCUCAACUUTT against Ceacam12 it is inactive: 0.328.

On to CGCGGUUGGUUUAUACAUATT against Sppl3, for which the z-score was inactive: 0.334.

With GGAGAGCUGCAUCAAAAAGTT against Prdm16, the z-score is inactive: 0.545. As for CCAUUAAGAUCCGAAGUAUTT against Lrrc58, the z-score was inactive: -0.36.

Consider “GCCCUACUAAGUCAAUUAATT against 1700055D18Rik”, for which the z-score was inactive: 0.248.

In the case of CGGCAGAGAUUAUAUCAUCTT against Syn3, the z-score was inactive: 1.06. The figure for GCAUACCUAUUCACGUACGTT against Slc7a4 is inactive: -0.475; for GGACGAGUACUGCUACAAUTT against Rrp8 it is inactive: -0.32; for GGCUUUUAGAUUUGUUUCATT against Hspa9 it is inactive: 1.91. As to GCCUUAAGCUAACAGUGGATT against Nrxn3, the z-score was inactive: -0.0525. The figure for CCGCCUCUUACCGAAGUUCTT against Mettl4 is active: 3.04; for GGGUCUGAUCCGACAUUUCTT against Ndufv1 it is inactive: -0.112.

In the case of GAUAACCAUGUUCUUUGGATT against Defa-rs2, the z-score is inactive: 0.835. The figure for CCAGCUGUGUAACACUACCTT against Gfi1 is inactive: 1.08. The figure for GGUUGAAGUGGUUUGUCAUTT against Sft2d1 is inactive: 0.447; for GGGUCAAAAUGUGAGCUAUTT against Odr4 it is inactive: -0.413. The figure for GGAUCCACAGUCAUUCAGATT against Sike1 is inactive: 1.13; for GCCUCCUCAUAAUCCACAATT against Klk1b11 it is inactive: 0.163. As for “GGUCCAUAACUUGUGUGCUTT against 3300002I08Rik”, the z-score was inactive: -0.462. The figure for GGCAAGAAGUGCACUGUAUTT against Rac3 is inactive: 0.232; for GGCAACCUUUUUAAAGAAGTT against Lurap1l it is inactive: -0.822.

As for GGUGGCAGAGGAUAUGUUUTT against Acbd4, the z-score was inactive: 0.646. The figure for CCGCCAUAUGUAUCACAGCTT against Rpl19 is inactive: 0.0184; for GCAUAAGCCUAAAAAUUCUTT against Ptprd it is inactive: 0.43; for GGCCAGAAUGUAUAAAGCUTT against Mboat7 it is inactive: -1.

Consider GGAGAUUGGACCACUAUGATT against Sec24d, for which the z-score is inactive: -1.31. The figure for GGACUACGAUGAAGAGUUGTT against Pcgf6 is inactive: 1.16; for GGAGACUAGCACACAAAUATT against Nt5c it is inactive: 0.988; for GGUAAAUGGCACACGUAGUTT against Hint1 it is inactive: 0.42. The figure for GGAACUAAAGCGAUAUUUATT against Med30 is inactive: 1.49; for GGCAUUCACCAUACAAUGATT against Ufm1 it is inactive: 0.687. On to CCCUCUGAAAAUGACCACUTT against Tprg, for which the z-score was inactive: 1.09. The figure for GCACCUCUCUACAUUACUGTT against Igflr1 is inactive: -0.0949; for GGCUACCUUCUACCUAAGGTT against Cyp2g1 it is inactive: 1.42; for GGAAAGGGUCUGUUUUACUTT against Zc2hc1c it is inactive: 0.595. The figure for GGCAAUUCUUAACCUGUCCTT against Tacc1 is active: -2.75; for GGCUGUGUGAGUCUGCUCATT against Ankrd55 it is inactive: -0.0408. The figure for GGUUGAAUACGAAGGCUUATT against Bicd1 is inactive: 0.646.
